# Source: the supplement of paper PMC10849652
# Sequences of proteins named here, by UniProt entry; tags and fusion partners are left off. A change or cut given only in a name is not applied to a line headed by its entry.
# UniProt Q9UK23: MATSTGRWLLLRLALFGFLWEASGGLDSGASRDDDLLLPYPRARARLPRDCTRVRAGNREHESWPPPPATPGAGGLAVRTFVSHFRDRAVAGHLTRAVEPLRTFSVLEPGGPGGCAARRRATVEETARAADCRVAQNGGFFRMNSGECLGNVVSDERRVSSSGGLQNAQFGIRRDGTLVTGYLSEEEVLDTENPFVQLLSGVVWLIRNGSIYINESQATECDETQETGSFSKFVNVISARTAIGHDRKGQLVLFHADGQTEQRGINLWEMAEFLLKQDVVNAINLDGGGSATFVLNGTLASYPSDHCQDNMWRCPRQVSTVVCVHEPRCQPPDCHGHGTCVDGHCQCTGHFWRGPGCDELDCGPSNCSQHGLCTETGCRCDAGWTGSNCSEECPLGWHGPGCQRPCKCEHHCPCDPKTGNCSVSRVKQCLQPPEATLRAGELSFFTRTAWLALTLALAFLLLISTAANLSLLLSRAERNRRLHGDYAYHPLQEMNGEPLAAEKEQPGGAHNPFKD
# UniProt B2RBV5: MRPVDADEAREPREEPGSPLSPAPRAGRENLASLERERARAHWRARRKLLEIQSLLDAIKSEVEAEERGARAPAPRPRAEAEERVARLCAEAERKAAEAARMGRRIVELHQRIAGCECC
# UniProt Q9GZM8: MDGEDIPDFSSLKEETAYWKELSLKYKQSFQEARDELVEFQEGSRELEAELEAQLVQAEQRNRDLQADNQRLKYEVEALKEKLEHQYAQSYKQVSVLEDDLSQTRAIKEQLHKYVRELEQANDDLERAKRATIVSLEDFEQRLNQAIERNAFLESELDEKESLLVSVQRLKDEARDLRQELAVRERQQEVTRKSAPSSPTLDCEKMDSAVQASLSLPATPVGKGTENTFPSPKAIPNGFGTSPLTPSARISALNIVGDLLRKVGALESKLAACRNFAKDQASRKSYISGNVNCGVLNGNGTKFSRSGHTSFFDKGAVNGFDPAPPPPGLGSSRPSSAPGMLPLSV
# UniProt O76041: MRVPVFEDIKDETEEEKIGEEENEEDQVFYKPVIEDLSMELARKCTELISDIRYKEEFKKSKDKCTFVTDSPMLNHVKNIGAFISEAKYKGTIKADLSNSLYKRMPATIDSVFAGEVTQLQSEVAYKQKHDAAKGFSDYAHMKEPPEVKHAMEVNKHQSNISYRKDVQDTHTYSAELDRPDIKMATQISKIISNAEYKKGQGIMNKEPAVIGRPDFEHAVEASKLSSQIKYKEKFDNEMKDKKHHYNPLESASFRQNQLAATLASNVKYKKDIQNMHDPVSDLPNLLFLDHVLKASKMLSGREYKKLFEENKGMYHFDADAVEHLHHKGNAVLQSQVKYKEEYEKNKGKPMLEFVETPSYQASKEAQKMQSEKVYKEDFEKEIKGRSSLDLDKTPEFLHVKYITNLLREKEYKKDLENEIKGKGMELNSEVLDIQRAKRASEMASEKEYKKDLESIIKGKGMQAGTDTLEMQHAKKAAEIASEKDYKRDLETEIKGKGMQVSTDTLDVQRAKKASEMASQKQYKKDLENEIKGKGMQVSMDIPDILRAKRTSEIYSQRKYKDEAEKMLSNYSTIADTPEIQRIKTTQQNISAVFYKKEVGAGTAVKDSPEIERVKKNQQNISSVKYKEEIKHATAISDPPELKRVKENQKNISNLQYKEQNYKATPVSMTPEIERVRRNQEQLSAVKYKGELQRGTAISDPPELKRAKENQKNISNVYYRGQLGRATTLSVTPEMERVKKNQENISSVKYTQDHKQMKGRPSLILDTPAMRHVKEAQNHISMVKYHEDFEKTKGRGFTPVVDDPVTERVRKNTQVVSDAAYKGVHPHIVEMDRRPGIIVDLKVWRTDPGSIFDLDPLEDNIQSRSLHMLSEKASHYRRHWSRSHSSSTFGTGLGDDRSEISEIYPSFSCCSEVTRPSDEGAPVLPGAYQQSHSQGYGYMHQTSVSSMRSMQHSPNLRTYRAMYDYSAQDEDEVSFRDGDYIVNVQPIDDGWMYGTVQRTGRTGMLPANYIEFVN
# UniProt Q9BSU3: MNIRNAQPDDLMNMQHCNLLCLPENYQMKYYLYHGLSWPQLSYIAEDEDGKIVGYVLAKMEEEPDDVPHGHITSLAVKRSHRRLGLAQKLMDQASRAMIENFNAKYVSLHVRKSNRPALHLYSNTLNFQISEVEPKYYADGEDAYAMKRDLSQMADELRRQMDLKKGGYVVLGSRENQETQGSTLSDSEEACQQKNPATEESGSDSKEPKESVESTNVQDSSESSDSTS
# UniProt Q9P0J0, whole entry, looked up: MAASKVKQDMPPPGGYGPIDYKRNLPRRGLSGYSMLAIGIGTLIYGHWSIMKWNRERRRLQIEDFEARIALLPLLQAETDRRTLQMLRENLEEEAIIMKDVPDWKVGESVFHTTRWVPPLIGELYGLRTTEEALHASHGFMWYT
# UniProt O95169, whole entry, looked up: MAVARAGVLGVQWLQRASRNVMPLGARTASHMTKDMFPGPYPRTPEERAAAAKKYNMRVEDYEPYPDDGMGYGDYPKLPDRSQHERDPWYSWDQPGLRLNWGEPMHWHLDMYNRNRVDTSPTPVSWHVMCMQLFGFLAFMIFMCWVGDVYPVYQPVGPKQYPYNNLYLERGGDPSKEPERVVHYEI
# NBDY, A0A0U1RRE5, UniProt A0A0U1RRE5, whole entry, looked up: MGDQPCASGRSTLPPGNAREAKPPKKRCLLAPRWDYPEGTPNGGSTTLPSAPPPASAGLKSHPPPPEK
# UniProt Q69YL0: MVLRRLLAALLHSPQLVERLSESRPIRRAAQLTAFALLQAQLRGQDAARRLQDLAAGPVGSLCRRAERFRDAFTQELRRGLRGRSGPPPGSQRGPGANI
# UniProt O75438, whole entry, looked up: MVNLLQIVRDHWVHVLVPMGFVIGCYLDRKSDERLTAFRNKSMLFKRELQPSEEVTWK
# UniProt Q96HR8: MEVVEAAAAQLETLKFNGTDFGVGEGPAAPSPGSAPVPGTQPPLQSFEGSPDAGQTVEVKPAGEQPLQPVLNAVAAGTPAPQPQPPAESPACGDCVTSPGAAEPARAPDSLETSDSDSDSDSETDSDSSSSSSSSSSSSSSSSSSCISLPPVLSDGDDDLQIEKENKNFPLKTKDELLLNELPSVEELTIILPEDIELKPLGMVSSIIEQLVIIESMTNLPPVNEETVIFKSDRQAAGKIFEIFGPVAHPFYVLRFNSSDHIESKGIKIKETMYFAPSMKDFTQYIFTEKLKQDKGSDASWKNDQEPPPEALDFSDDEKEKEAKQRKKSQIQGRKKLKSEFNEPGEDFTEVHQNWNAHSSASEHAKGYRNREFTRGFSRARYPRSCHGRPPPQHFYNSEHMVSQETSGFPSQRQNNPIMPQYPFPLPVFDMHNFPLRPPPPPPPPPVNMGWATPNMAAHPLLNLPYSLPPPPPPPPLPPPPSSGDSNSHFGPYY
# The list shows a part of the results.
# Tests used:
# Assay in all cases: log2 fold change, soluble protein after heating vs DMSO (PISA); higher = thermal stabilisation; K562 cells, 10 uM, 30 min; active = over 0.2 and 3.5 SD of the protein, either way, in both replicates (recomputed)
# bafetinib = compound: Cc1ccc(NC(=O)c2ccc(CN3CC[C@H](N(C)C)C3)c(C(F)(F)F)c2)cc1Nc1nccc(-c2cncnc2)n1 [bafetinib]
# Outline: (§1)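 Aliquots of K562 cells (2×10^6 cells/mL) treated with 10 μM compound for 30 min were heated for 3 min over 48°C-58°C. After pooling and extraction in PBS with 0.5% NP-40 at 4°C, soluble protein from a 21,000xg, 90 min spin was quantified by TMTpro 16plex LC-MS/MS with channel sums equalised. Thermal stability is expressed against control samples, from duplicates, as a log2 fold change.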
# [1] = compound: Cc1cccc(CC(=O)N2CCc3c2ccc(-c2cn(C)c4ncnc(N)c24)c3F)n1
# Outline: as §1
# nilotinib = compound: Cc1cn(-c2cc(NC(=O)c3ccc(C)c(Nc4nccc(-c5cccnc5)n4)c3)cc(C(F)(F)F)c2)cn1 [nilotinib]
# Outline: as §1
# [2] = compound: Cc1nc(Nc2n[nH]c3c2CN(C(=O)N[C@H](CN(C)C)c2ccccc2)C3(C)C)c2sccc2n1
# Outline: as §1
# dasatinib = compound: Cc1nc(Nc2ncc(C(=O)Nc3c(C)cccc3Cl)s2)cc(N2CCN(CCO)CC2)n1 [dasatinib]
# Outline: as §1
# [3] = compound: Cc1ncc(-c2ccnc(Nc3ccc(S(C)(=O)=O)cc3)n2)n1C(C)C
# Outline: as §1
# [4] = compound: Cn1cc(-c2ccc3c(c2)CCN3C(=O)Cc2cccc(C(F)(F)F)c2)c2c(N)ncnc21
# Outline: as §1
# [5] = compound: Cn1cc(-c2ccc3nnc(C(F)(F)c4ccc5ncccc5c4)n3n2)cn1
# Outline: as §1
# tipifarnib = compound: Cn1cncc1[C@@](N)(c1ccc(Cl)cc1)c1ccc2c(c1)c(-c1cccc(Cl)c1)cc(=O)n2C [tipifarnib]
# Outline: as §1
# [6] = compound: NC(=O)Nc1cc(-c2cccc(F)c2)sc1C(=O)N[C@H]1CCCNC1
# Outline: as §1
# [7] = compound: NC(=O)c1cnc(N[C@@H]2CCCC[C@@H]2N)nc1Nc1cccc(-n2nccn2)c1
# Outline: as §1
# entinostat = compound: Nc1ccccc1NC(=O)c1ccc(CNC(=O)OCc2cccnc2)cc1 [entinostat]
# Outline: as §1
# vorinostat = compound: O=C(CCCCCCC(=O)Nc1ccccc1)NO [vorinostat]
# Outline: as §1
# mubritinib = compound: FC(F)(F)c1ccc(/C=C/c2nc(COc3ccc(CCCCn4ccnn4)cc3)co2)cc1 [mubritinib]
# Outline: as §1
# [8] = compound: NC1(c2ccc(-c3nc4ccn5c(=O)[nH]nc5c4cc3-c3ccccc3)cc2)CCC1
# Outline: as §1
# citarinostat = compound: O=C(CCCCCCNC(=O)c1cnc(N(c2ccccc2)c2ccccc2Cl)nc1)NO [citarinostat]
# Outline: as §1
# silmitasertib = compound: O=C(O)c1ccc2c(c1)nc(Nc1cccc(Cl)c1)c1ccncc12 [silmitasertib]
# Outline: as §1
# [9] = compound: O=C1NC(=O)C(c2cnc3ccccn23)=C1c1cn2c3c(cc(F)cc13)CN(C(=O)N1CCCCC1)CC2
# Outline: as §1
# [10] = compound: c1cc(OCCN2CCCCC2)cc(-c2n[nH]c3ccc(-c4nnc[nH]4)cc23)c1
# Outline: as §1
# [11] = compound: NCC(=O)Nc1ccc(-n2nc(C(F)(F)F)cc2-c2ccc3c(ccc4ccccc43)c2)cc1
# Outline: as §1
Target,log2 fold change (bafetinib),log2 fold change [1],log2 fold change (nilotinib),log2 fold change [2],log2 fold change (dasatinib),log2 fold change [3],log2 fold change [4],log2 fold change [5],log2 fold change (tipifarnib),log2 fold change [6],log2 fold change [7],log2 fold change (entinostat),log2 fold change (vorinostat),log2 fold change (mubritinib),log2 fold change [8],log2 fold change (citarinostat),log2 fold change (silmitasertib),log2 fold change [9],log2 fold change [10],log2 fold change [11]
"NA, A0A2R8Y3M9",inactive: -0.605,inactive: 0.19,inactive: 0.035,inactive: -0.091,inactive: -0.013,inactive: 0.31,inactive: 0.503,inactive: -0.117,inactive: 0.08,inactive: -0.104,inactive: -0.17,inactive: -0.011,inactive: 0.372,,,,,,,
NAGPA (UniProt Q9UK23),inactive: -0.076,inactive: -0.142,inactive: -0.082,inactive: 0,inactive: 0.053,inactive: 0.014,inactive: 0.023,,inactive: 0.245,inactive: 0.051,inactive: -0.045,inactive: 0.04,inactive: -0.122,inactive: -0.091,inactive: 0.03,inactive: 0.074,inactive: -0.237,inactive: 0.043,inactive: -0.023,
NA (UniProt B2RBV5),inactive: -0.005,inactive: -0.084,inactive: -0.433,active: 0.828,,inactive: -0.195,,,inactive: 0.075,inactive: 0.06,,inactive: 0.029,inactive: 0.045,inactive: 0.04,inactive: -0.055,inactive: 0.12,inactive: 0.056,inactive: -0.001,inactive: -0.014,
NDEL1 isoform 2 (UniProt Q9GZM8),inactive: -0.136,inactive: 0.008,inactive: 0.021,inactive: 0.017,inactive: -0.004,inactive: -0.107,inactive: 0.051,inactive: 0.049,inactive: -0.051,,inactive: -0.066,,inactive: 0.071,inactive: 0.052,inactive: 0.039,inactive: -0.155,inactive: -0.104,inactive: -0.15,inactive: 0.19,inactive: 0.001
NEBL (UniProt O76041),inactive: -0.137,,inactive: 0.035,inactive: 0.121,inactive: 0.027,inactive: 0.057,inactive: 0,inactive: 0.014,inactive: 0.065,inactive: -0.015,inactive: -0.069,inactive: -0.001,,inactive: 0.054,inactive: 0.055,inactive: -0.022,inactive: -0.02,inactive: -0.056,inactive: -0.097,inactive: -0.001
NDUFAB1 (UniProt O14561),inactive: -0.025,inactive: -0.266,inactive: 0.101,inactive: 0.001,,inactive: -0.064,inactive: 0.072,inactive: 0.261,,inactive: 0.059,inactive: 0.229,inactive: 0.058,inactive: -0.083,inactive: -0.044,inactive: 0.048,inactive: -0.192,inactive: -0.097,inactive: -0.115,inactive: -0.228,inactive: 0.092
NAA11 (UniProt Q9BSU3),inactive: 0,,inactive: -0.093,inactive: 0.015,inactive: 0.059,inactive: -0.003,inactive: 0.102,inactive: 0.176,inactive: 0.011,inactive: 0.139,inactive: -0.048,active: 0.375,,inactive: -0.081,inactive: -0.072,inactive: -0.05,inactive: -0.001,inactive: -0.064,inactive: -0.022,inactive: 0.167
NDUFA13 (UniProt Q9P0J0),inactive: -0.071,inactive: 0.009,inactive: 0.014,inactive: -0.011,inactive: -0.012,inactive: 0.01,inactive: 0.081,inactive: 0.045,inactive: -0.045,inactive: 0.028,inactive: -0.033,inactive: 0.063,inactive: 0.021,inactive: 0.009,inactive: -0.087,inactive: 0.007,inactive: -0.004,inactive: 0.051,inactive: -0.038,inactive: -0.089
NDUFB8 (UniProt O95169),inactive: -0.029,inactive: -0.002,inactive: 0.015,inactive: 0.027,inactive: 0.056,inactive: -0.04,inactive: -0.08,inactive: 0.154,inactive: 0.071,inactive: 0.028,inactive: 0.083,inactive: 0.113,inactive: -0.075,inactive: 0.027,inactive: -0.008,inactive: -0.016,inactive: 0.004,inactive: -0.172,inactive: -0.036,inactive: 0.02
"NBDY, A0A0U1RRE5",inactive: -0.01,inactive: -0.16,inactive: -0.033,inactive: 0.021,inactive: 0.03,inactive: -0.108,inactive: 0.011,inactive: -0.024,inactive: -0.094,,inactive: 0.032,,inactive: -0.087,inactive: -0.039,inactive: 0.085,,inactive: -0.024,inactive: -0.173,,
NCBP2AS2 (UniProt Q69YL0),active: -0.504,inactive: -0.018,inactive: 0,inactive: 0.045,inactive: -0.021,inactive: 0.031,inactive: 0.002,inactive: 0.021,inactive: -0.001,inactive: -0.21,inactive: -0.161,inactive: -0.004,inactive: 0.024,inactive: 0.006,inactive: -0.312,inactive: 0,inactive: 0.024,,inactive: -0.046,inactive: -0.157
NDUFB1 (UniProt O75438),inactive: -0.116,inactive: 0.028,inactive: 0.095,inactive: 0.009,,inactive: -0.028,inactive: 0.004,,inactive: 0.038,inactive: 0.053,inactive: -0.114,inactive: 0.055,inactive: 0.108,inactive: 0.022,inactive: -0.007,inactive: -0.026,inactive: -0.014,inactive: -0.124,inactive: 0.012,inactive: -0.134
NAF1 (UniProt Q96HR8),inactive: -0.032,inactive: -0.036,inactive: -0.006,inactive: 0.066,inactive: 0.108,inactive: 0.039,inactive: 0.026,inactive: -0.019,inactive: -0.039,inactive: 0.026,inactive: 0.102,inactive: -0.03,inactive: 0.008,inactive: 0.014,inactive: 0.043,inactive: -0.021,inactive: -0.021,inactive: 0.054,inactive: -0.015,inactive: 0.12

# Rewritten as tab-separated lines: entries from further up.
Target	log2 fold change (bafetinib)	log2 fold change [1]	log2 fold change (nilotinib)	log2 fold change [2]	log2 fold change (dasatinib)	log2 fold change [3]	log2 fold change [4]	log2 fold change [5]	log2 fold change (tipifarnib)	log2 fold change [6]	log2 fold change [7]	log2 fold change (entinostat)	log2 fold change (vorinostat)	log2 fold change (mubritinib)	log2 fold change [8]	log2 fold change (citarinostat)	log2 fold change (silmitasertib)	log2 fold change [9]	log2 fold change [10]	log2 fold change [11]
NA, A0A2R8Y3M9	inactive: -0.605	inactive: 0.19	inactive: 0.035	inactive: -0.091	inactive: -0.013	inactive: 0.31	inactive: 0.503	inactive: -0.117	inactive: 0.08	inactive: -0.104	inactive: -0.17	inactive: -0.011	inactive: 0.372							
NAGPA (UniProt Q9UK23)	inactive: -0.076	inactive: -0.142	inactive: -0.082	inactive: 0	inactive: 0.053	inactive: 0.014	inactive: 0.023		inactive: 0.245	inactive: 0.051	inactive: -0.045	inactive: 0.04	inactive: -0.122	inactive: -0.091	inactive: 0.03	inactive: 0.074	inactive: -0.237	inactive: 0.043	inactive: -0.023	
